The test in a line: qHTS Assay for Lipid Storage Modulators in Drosophila S3 Cells.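 On cell number change: cells counted by Cell Tracker Red CMTPX staining in the red channel.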 The conditions noted are these: BODIPY lipid droplet fluorescence, 18-24 h; for cell number change: measured here: cell count max response, cells fed with added oleic acid. An outline of the steps:
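Drosophila S3 cells loaded with oleic acid (400 uM, as added) and compounds at several concentrations; lipid droplets imaged by 488-nm laser-scanning cytometry, 500–530 nm intensity and object ratio to cell channel. Percent activity normalized to 20 uM Triacsin C.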

[1] abbreviates: measured here: cell number channel AC50, cells fed with added oleic acid.
Setting [2] is: measured here: lipid fluorescence (Fed channel) AC50, cells fed with added oleic acid.

This is one part of the list. Further columns of the screen follow, without active or inactive calls. The list favours compounds with an active or inconclusive main result. The note in brackets gives the kind of curve behind each potency; many fits are weak.

Here are results for 38 molecules from PubChem BioAssay AID2685 (National Center for Advancing Translational Sciences (NCATS), 2010).

Take `CCN(CC)S(=O)(=O)c1ccc2[nH]cc(C(=O)NCCc3ccccc3)c(=O)c2c1`: the AC50 was 1.84 µM [rising, partial curve] under setting [1] and 2.59 µM [rising, partial curve] under setting [2]. Consider `COc1ccc(C2CC(=O)C3=C(C2)Nc2ncnn2C3c2ccccc2C)cc1` (centres undefined), for which the cell number change amounted to 35.8%. In addition, the AC50 under setting [1] is 7.31 µM [rising, partial curve, poor fit]. Also, under setting [2], the AC50 was 0.00517 µM [falling, full curve, poor fit].

For the molecule `CC(=O)CC(=O)Nc1ccn(-c2ccccc2)n1`, the cell number change was -8.79%. The half-maximal activity concentration (AC50) under setting [2] is 16.4 µM [rising, single point]. With `CCOC(=O)C1CCN(C(=O)c2ccc(OCC(=O)Nc3ccc(OCC)cc3)c(OC)c2)CC1`, the cell number change was found to be 19.8%. For the molecule `COc1ccccc1-c1nnc(SCC(=O)Nc2oc(C)c3c(C)n[nH]c(=O)c23)n1C`, the AC50 under setting [1] is 6.51 µM [falling, single point]. Regarding `CCCc1c(C(=O)N/N=C/c2ccccc2OCc2ccc(F)cc2)nnn1-c1nonc1N`, the cell number change came to 7.25%. For the same molecule, the AC50 under setting [2] was 29.1 µM [rising, single point]. In the case of `CC1CCCC(NC(=O)c2cc(S(=O)(=O)N3CCCCC3)ccc2Cl)C1C` (centres undefined), the cell number change is -15.9%. Moreover, the AC50 under setting [1] is 6.51 µM [falling, single point]. The AC50 under setting [2] was 6.51 µM [falling, single point].

In the case of `CC(C)(C)c1[nH]nc2c1C(c1ccsc1)C(C#N)=C(N)O2` (centres undefined), the cell number change was -6.99%. Besides, the AC50 under setting [2] is 0.82 µM [falling, full curve, poor fit].

`O=C(Cc1ccccc1)NCCc1c[nH]c2ccccc12`: the cell number change is 4.72%. Further, under setting [1], the AC50 was 0.0517 µM [rising, full curve, poor fit]. Turning to `O=S(=O)(Cc1ccccc1Cl)c1ncn[nH]1`, the cell number change is -22.6%. The AC50 under setting [2] is 29.1 µM [rising, single point]. In the case of `CCCCn1c(N)c(N2CCOCC2)c(=O)n(CC(=O)NC(C)c2ccccc2)c1=O` (centres undefined), the cell number change came to 26.2%. In addition, under setting [1], the AC50 is 0.517 µM [falling, full curve]. In the case of `Nn1c(SCC(=O)Nc2ccc3c(c2)OCO3)nnc1C(F)(F)F`, the cell number change was -3.38%. On to `O=C(NCCN1CCN(C(=O)c2ccc(F)cc2)CC1)c1ccc(F)cc1`, for which the cell number change was -7.43%. Also, the AC50 under setting [2] was 29.1 µM [rising, single point].

For the molecule `Cc1cc(C(=O)N2CCN(Cc3ccccc3)CC2)ccc1[N+](=O)[O-]`, the cell number change was -14.4%. The AC50 under setting [2] is 4.11 µM [falling, single point].

Regarding `COc1ccc(C(=O)NC(=S)NNC(=O)c2ccc(O)cc2)cc1[N+](=O)[O-]`, the cell number change stood at 4.2%. Take `CCCCN(C)C(=O)Cn1nc(-c2ccc(Cl)cc2)ccc1=O`: the cell number change is -17%. Regarding `CCC(=O)c1c(CC)c2n3c1CC[C@H]3CCC2`, the cell number change is -16%. The AC50 under setting [2] was 29.1 µM [rising, single point]. For `N=c1c(S(=O)(=O)c2ccc(Cl)cc2)cc2c(=O)n3ccccc3nc2n1CCN1CCOCC1`, the AC50 under setting [1] was 0.411 µM [rising, full curve] and the AC50 under setting [2] is 0.461 µM [rising, full curve]. Turning to `Cc1ccc(C)c(S(=O)(=O)Nc2ccccc2C(=O)Nc2ccc(S(=O)(=O)Nc3ncccn3)cc2)c1`, the cell number change came to 23.6%. Further, the AC50 under setting [2] was 16.4 µM [rising, partial curve]. With `Cc1ccccc1NS(=O)(=O)c1ccc(C(=O)NCC(c2ccco2)N(C)C)cc1` (centres undefined), the cell number change is 31.3%. Further, under setting [1], the AC50 was 2.91 µM [rising, single point]. Turning to `CN(CC1CCCN(CCc2ccc(Cl)cc2)C1)C(=O)c1ccoc1` (centres undefined), the cell number change came to 42.4%. Also, the AC50 under setting [1] is 29.1 µM [rising, single point]. For the same molecule, under setting [2], the AC50 is 29.1 µM [rising, single point]. Regarding `O=C(c1cc2ccc([N+](=O)[O-])cc2oc1=O)N1CCOCC1`, the cell number change is -59.2%. Under setting [1], the AC50 was 32.6 µM [falling, partial curve, poor fit]. Also, the AC50 under setting [2] was 0.651 µM [falling, full curve, poor fit].

Take `Cc1ccsc1C(=O)NNC(=O)c1csc(N2CCOCC2)n1`: the cell number change was -6%. Take `O=C(NCc1cccnc1)C1CC(=O)N(C2CCCCC2)C1` (centres undefined): the cell number change was determined as 9.06%. For the same molecule, the AC50 under setting [1] was 0.13 µM [rising, full curve, poor fit]. Also, under setting [2], the AC50 was 0.13 µM [rising, full curve, poor fit]. Consider `CC1(C)OC(=O)N(c2ccccc2)C12C=Cc1cc(Br)ccc1O2` (centres undefined), for which the cell number change is -18.4%. Take `CCN(CC(=O)Nc1ccc2c(c1)OCCO2)C(=O)CCc1ccccc1Cl`: the cell number change was -7.7%. Also, under setting [2], the AC50 is 0.731 µM [rising, full curve].

As to `O=C(COC(=O)c1ccccc1Br)NC1CCCC1`, the cell number change was -5.13%. For the molecule `Cc1ccsc1CNCc1cc(Cl)ccc1O`, the cell number change was -34.2%. Further, the AC50 under setting [1] was 16.4 µM [falling, partial curve, poor fit]. On to `CC(=O)Nc1ccc(NC(=O)COc2ccccc2C(=O)Nc2cccc(Cl)c2Cl)cc1`, for which the cell number change was 7.8%. Moreover, the AC50 under setting [2] is 14.6 µM [rising, partial curve]. Take `Cc1ccc(C(=O)Nc2cccc(NC(=O)c3cccs3)c2)c(C)c1`: the cell number change was -19.6%. Take `S=C(NCCc1ccccc1)N1CCOCC1`: the cell number change is 15.3%. Besides, the half-maximal activity concentration (AC50) under setting [2] is 0.58 µM [falling, single point]. In the case of `COc1cc(NS(=O)(=O)c2ccc(C)cc2)c2ncccc2c1`, the cell number change was -14.6%. Also, under setting [2], the AC50 is 13 µM [falling, single point]. As for `Cc1ccc(/C=N/NC(=O)c2ccc(OC3CCCC3)cc2)o1`, the cell number change was -21.5%. Also, under setting [2], the AC50 is 29.1 µM [falling, single point]. As for `N#C/C=C(/N)c1ccc(Br)cc1`, the cell number change turned out to be 71.8%. Also, the AC50 under setting [1] was 25.9 µM [rising, single point]. Also, the AC50 under setting [2] was 25.9 µM [rising, single point]. On to `O=C(Nc1ccc(Oc2cccnc2)cc1)C1CCN(Cc2cc(Cl)ccc2O)CC1`, for which the cell number change was -54.1%. The concentration at half-maximal activity (AC50) under setting [1] is 29.1 µM [falling, single point]. Further, under setting [2], the AC50 was 29.1 µM [falling, single point]. Take `Nc1nc(Nc2ccccc2Cl)cc(=O)[nH]1`: the cell number change was 11.4%. For the same molecule, the half-maximal activity concentration (AC50) under setting [2] was 6.51 µM [rising, single point]. In the case of `Cc1ccc2cc(CN(CC(C)C)C(=O)C3CCCO3)c(=O)[nH]c2c1` (centres undefined), the AC50 under setting [1] was 3.26 µM [rising, single point] and the AC50 under setting [2] was 2.91 µM [rising, partial curve]. With `CCc1ccccc1NC(=O)N1CCCC(CCC(=O)N(C)CCc2ccccn2)C1` (centres undefined), the cell number change was determined as 23.2%. Also, the concentration at half-maximal activity (AC50) under setting [2] was 9.2 µM [rising, partial curve].

Usually AC50 stands for the concentration at which the activity in the assay is half-maximal. Read a high AC50 as weaker potency.
